No constants are given. Whether binding was seen depends on the method and setting. In cells and extracts the contact can be indirect. A yes stands for co-enrichment or nearness to the bait. Other partners may have been found.
B1: PP6R3 (protein, UniProt Q922D4 1-844)
chain: MFWKFDLHSSSHIDTLLEREDVTLKELMDEEDVLQECKAQNRKLIEFLLKAECLEDLVSFIIEEPPQDMDEKIRYKYPNISCELLTSDVSQMNDRLGEDESLLMKLYSFLLNESPLNPLLASFFSKVLSILISRKPEQIVDFLKKKRDFVDLIIKHIGTSAIMDLLLRLLTCIEPPQPRQDVLNWLNEERIIQRLVEIVHPSQEEDRHSNASQSLCEIVRLSRDQMLQVQNSTEPDPLLATLEKQEIIEQLLSNIFHKEKNESAIVSAIQILLTLLETRRPTFEGHIEICPPGMSHSACSVNKSVLEAIRGRLGSFHELLLEPPKKSVMKTTWGILDPPVGNTRLNVIRLISSLLQTNTSSINGDLMELNSIGVILDMFFKYTWNNFLHTQVEICIALILASPFENAENGTITDQDSTGDNLLLKHLFQKCQLIERILEAWDTNEKKQAEGGRRHGYMGHLTRIANCIVHSTDKGPNSALVQQLIKDLPDEVRERWETFCTNSLGETNKRNTVDLAFSDYQMQQMTSNFIDQFGFNDEKFADQDDIGNVSFDRVSDINFTLNTNESGNIALFEACCKERIQQFDDGGSDEEDIWEEKHIAFTPESQRRSSSGSTDSEESTDSEEEDGAKQDLFESSSANTEDKMEVDLNEPPTWSANFDVPMETTHGAPLDSVGSDVWSTEEPMPTKETGWASFSEFTSSLSTKESLRSNSPVEMETSTESVDPLTPGAAALATQPEAPGSMAMEASSDGEEDAESTDKVTETVMNGGMKETLSLTVDAKTETAVFKSEEEKLSTSQDAACKDAEETPEPAEAKCTAPLTPSSSPEQRTDQPSMPSDPSVNGPV
B2: PP6C (protein, UniProt Q9CQR6 1-305)
chain: MAPLDLDKYVEIARQCKYLPENDLKRLCDYVCDLLLEESNVQPVSTPVTVCGDIHGQFYDLCELFRTGGQVPDTNYIFMGDFVDRGYYSLETFTYLLALKAKWPDRITLLRGNHESRQITQVYGFYDECQTKYGNANAWRYCTKVFDMLTVAALIDEQILCVHGGLSPDIKTLDQIRTIERNQEIPHKGAFCDLVWSDPEDVDTWAISPRGAGWLFGAKVTNEFVHINNLKLICRAHQLVHEGYKFMFDEKLVTVWSAPNYCYRCGNIASIMVFKDVNTREPKLFRAVPDSERVIPPRTTTPYFL
B3: ANKRD28 (protein, UniProt Q505D1 1-1053)
chain: MAFLKLRDQPSLVQAIFNGDPDEVRALIFKKEDVNFQDNEKRTPLHAAAYLGDAEIIELLILSGARVNAKDSKWLTPLHRAVASCSEEAVQILLKHSADVNARDKNWQTPLHIAAANKAVKCAESLVPLLSNVNVSDRAGRTALHHAAFSGHGEMVKLLLSRGANINAFDKKDRRAIHWAAYMGHIEVVKLLVSHGAEVTCKDKKSYTPLHAAASSGMISVVKYLLDLGVDMNEPNAYGNTPLHVACYNGQDVVVNELIDCGANVNQKNEKGFTPLHFAAASTHGALCLELLVGNGADVNMKSKDGKTPLHMTALHGRFSRSQTIIQSGAVIDCEDKNGNTPLHIAARYGHELLINTLITSGADTAKRGIHGMFPLHLAALSGFSDCCRKLLSSGFDIDTPDDFGRTCLHAAAAGGNLECLNLLLNTGADFNKKDKFGRSPLHYAAANCNYQCLFALVGSGASVNDLDERGCTPLHYAATSDTDGKCLEYLLRNDANPGIRDKQGYNAVHYSAAYGHRLCLQLIASETPLDVLMETSGTDMLSDSDNRATISPLHLAAYHGHHQALEVLVQSLLDLDVRNSSGRTPLDLAAFKGHVECVDVLINQGASILVKDYVLKRTPIHAAATNGHSECLRLLIGNAEPQNAVDIQDGNGQTPLMLSVLNGHTDCVYSLLNKGANVDAKDKWGRTALHRGAVTGHEECVDALLQHGAKCLLRDSRGRTPIHLSAACGHIGVLGALLQSATSVDANPAVVDNHGYTALHWACYNGHETCVELLLEQDVFQKIDGNAFSPLHCAVINDNEGAAEMLIDSLGASIVNATDSKGRTPLHAAAFTDHVECLQLLLSQNAQVNSADSTGKTPLMMAAENGQTNTVEMLVSSASADLTLQDKSKNTALHLACGKGHETSALLILEKITDRNLINATNAALQTPLHVAARNGLTMVVQELLGKGASVLAVDENGYTPALACAPNKDVADCLALILATMMPVSSSSPLTSLTFNAINRYTNTSKTVSFEALPIMRNEASSYCSFNNIGGEQEYLYTDVDELNDSDSETY
B4: ANKRD52 (protein, UniProt Q8BTI7 1-1076)
chain: MGILSITDQPPLVQAIFSRDVEEVRSLLSQKENINVLDQERRTPLHAAAYVGDVPILQLLLMSGANVNAKDTLWLTPLHRAAASRNEKVLGLLLAHSADVNARDKLWQTPLHVAAANRATKCAEALAPLLSSLNVADRSGRSALHHAVHSGHLETVNLLLNKGASLNVCDKKERQPLHWAAFLGHLEVLKLLVARGADLSCKDRKGYGLLHTAAASGQIEVVKHLLRMGAEIDEPNAFGNTALHIACYLGQDAVAIELVNAGANVNQPNDKGFTPLHVAAVSTNGALCLELLVNNGADVNYQSKEGKSPLHMAAIHGRFTRSQILIQNGSEIDCADKFGNTPLHVAARYGHELLISTLMTNGADTARRGIHDMFPLHLAVLFGFSDCCRKLLSSGQLYSIVSSLSNEHVLSAGFDINTPDSLGRTCLHAAASGGNVECLNLLLSSGADLRRRDKFGRTPLHYAAANGSYQCAVTLVTAGAGVNEADCKGCSPLHYAAASDTYRRAEPHTASSHDAEEDELLKESRRKEAFFCLEFLLDNGADPSLRDRQGYTAVHYAAAYGNRQNLELLLEMSFNCLEDVESTVPVSPLHLAAYNGHCEALKTLAETLVNLDVRDHKGRTALFLATERGSTECVEVLTAHGASALIKERKRKWTPLHAAAASGHTDSLHLLIDSGERADITDVMDAYGQTPLMLAIMNGHVDCVHLLLEKGSTADAADLRGRTALHRGAVTGCEDCLAALLDHDAFVLCRDFKGRTPIHLASACGHTAVLRTLLQAALSTDPLDAGVDYSGYSPMHWASYTGHEDCLELLLEHSPFSYLEGNPFTPLHCAVINNQDSTTEMLLGALGAKIVNSRDAKGRTPLHAAAFADNVSGLRMLLQHQAEVNATDHTGRTALMTAAESGQTAAVEFLLYRGKADLTVLDENKNTALHLACSKGHEKCALMILAETQDLGLINATNSALQMPLHIAARNGLASVVQALLSRGATVLAVDEEGHTPALACAPNKDVADCLALILSTMKPFPPKDAVSPFSFSLLKNCGIAAAKTVGGCGALPHGASCPYSQERHGAIGLDGCYSE

Target: m54.5p-V5 (C-terminally V5-tagged MCMV m54.5 ORF product) (murine cytomegalovirus (MCMV, Smith, pSM3fr))
Test: affinity purification with mass spectrometry

Binder | binding
B1 | binds
B2 | binds
B3 | binds
B4 | binds
